Laboratory results as given in patent US4008219A, “4-Benzazonine derivatives and process for preparation thereof” (Nihon Iyakuhin Kogyo Co., Ltd., priority 1973, dated 1977).
For at least one compound, name, drawing or mass did not settle the structure.

What was measured:
guinea pigs [1] = assay: Antitussive effect, Mechanical Stimulus Method; conditions: guinea pig, in vivo
Source text: (§1) Results of comparative tests where the medicinal effects of compounds of this invention were compared with those of known compounds such as pentazocine and codeine phosphate by employing mice and guinea pigs as the test animals are shown in the following Tables I and II.
(§2) Comparison of Antitusive Effects
Mechanical Stimulus Method^1)
1) Takagi et al modification [Journal of the Pharmaceutical Society of
Japan, 80, 1497 (1960)] of the test method of H. Konzett and E. Rothlin
[Experientia, 10, 472 (1954)], in which urethane was hypodermically
injected (15 mg/Kg) into guinea pigs and swine hairs were inserted into
the trachea to impart stimulus.

guinea pigs [2] = assay: Antitussive effect, Chemical Stimulus Method (SO2 gas); conditions: guinea pig, in vivo
Source text: as §1, §2
2) Takagi et al modification [Journal of Pharmaceutical Society of Japan,
80, 1497 (1960)] of the test method of H. Friebel, C. Reichle and A. V.
Gravenitz [Archiv Fur experimentalle Phathologie und Pharmakologie,
Naunyn-Schmiede-berg's, 224,384 (1955)], in which the test compound was
hypodermically injected into guinea pigs, 30 minutes after the injection
the quinea pigs were put into a desiccator filled with SO2 gas and
kept in the desiccator for 1 minute, then the guinea pigs were put into
another vessel and the degree of coughing was examined.

For `COc1ccc2c3c1O[C@H]1[C@@H](O)CC[C@H]4[C@@H](C2)N(C)CC[C@@]341` [dihydrocodeine phosphate, reference compound], the “Effect Ratio to Codeine Phosphate, Mechanical Stimulus Method” value (guinea pigs [1]) was 310.7 and the “Effect Ratio to Codeine Phosphate, Chemical Stimulus Method” value (guinea pigs [2]) was 500.4.
